Patent publication US8946144B2, “Phosphonated glycopeptide and lipoglycopeptide antibiotics and uses thereof for the prevention and treatment of bone and joint infections” (The Medicines Company, priority 2006, dated 2015)
Some entries share one result that the patent states for a list of compounds. At least one structure is not confirmed: it was looked up by name or label, or the drawing left a doubt. Some compounds share one range, which may span the group rather than tell each member.

The compounds below were run on S. aureus strain ATCC13709 (assay: Antibacterial susceptibility (MIC) in CAMHB). Details: vs vancomycin (6, 18, 21) or oritavancin (10, 31, 33, 39, 44, 50, 60, 65).
Format: cell-based
Experimental: Susceptibility of S. aureus strain ATCC13709 to the commercial antibiotics and synthesized compounds was determined by following the guidelines set by the Clinical and Laboratory Standards Institute (formerly the National Committee for Clinical Laboratory Standards) (M26-A). Compounds were diluted two-fold serially in either DMSO (Vancomycin 4, Oritavancin 8, compounds 10, 31, 33, 39, 44, 50, 60, 65), DMF (compounds 18 and 21) or in PBS (compound 6) and transferred to cation-adjusted Mueller Hinton broth (CAMHB; Becton Dickinson). 50 μL of compounds diluted in CAMHB was mixed with […] of bacteria diluted in CAMHB in 96-well microtiter plates. The final number of micro-organisms in the assay was 5×10^5 c.f.u. per mL and the final concentration of DMSO or DMF in the assay, if present, was 1.25%. Assays were set up in duplicate and incubated at 37° C. for 18 h. The concentration of compound that inhibited visible growth was reported as the minimum inhibitory concentration (MIC).

Q: With CNC(CC(C)C)C(=O)NC1C(=O)NC(CC(N)=O)C(=O)NC2C(=O)NC3C(=O)NC(C(=O)NC(C(=O)OCC(=O)Nc4ccc(CC(P(=O)(O)O)P(=O)(O)O)cc4)c4cc(O)cc(O)c4-c4cc3ccc4O)C(O)c3ccc(c(Cl)c3)Oc3cc2cc(c3OC2OC(CO)C(O)C(O)C2OC2CC(C)(N)C(O)C(C)O2)Oc2ccc(cc2Cl)C1O (centres unmarked) [Compound 21] as the compound, how does the “antibacterial activity, fold weaker than the parent drug” value read?
A: 16 to 32 fold

Q: How did the “antibacterial activity, fold weaker than the parent drug” value turn out when CC(C)C[C@H](C(=O)N[C@H]1C(=O)N[C@@H](CC(N)=O)C(=O)N[C@H]2C(=O)N[C@H]3C(=O)N[C@H](C(=O)N[C@H](C(=O)O)c4cc(O)cc(O)c4-c4cc3ccc4O)[C@H](O[C@H]3C[C@](C)(N)[C@@H](O)[C@H](C)O3)c3ccc(c(Cl)c3)Oc3cc2cc(c3O[C@@H]2O[C@H](CO)[C@@H](O)[C@H](O)[C@H]2O[C@H]2C[C@](C)(NCc3ccc(-c4ccc(Cl)cc4)cc3)[C@@H](O)[C@H](C)O2)Oc2ccc(cc2Cl)[C@H]1O)N(C)C(=O)CCCC(=O)NC(P(=O)(O)O)P(=O)(O)O.N.N.N [Compound 10] was run?
A: 16 to 32 fold

Q: CNC(CC(C)C)C(=O)NC1C(=O)NC(CC(N)=O)C(=O)NC2C(=O)NC3C(=O)NC(C(=O)NC(C(=O)OCC(=O)NC(P(=O)(O)O)P(=O)(O)O)c4cc(O)cc(O)c4-c4cc3ccc4O)C(O)c3ccc(c(Cl)c3)Oc3cc2cc(c3OC2OC(CO)C(O)C(O)C2OC2CC(C)(N)C(O)C(C)O2)Oc2ccc(cc2Cl)C1O (centres unmarked) [Compound 18] was tested. Which “antibacterial activity, fold weaker than the parent drug” value did it give?
A: 16 to 32 fold

Q: CN[C@H](CC(C)C)C(=O)N[C@H]1C(=O)N[C@@H](CC(N)=O)C(=O)N[C@H]2C(=O)N[C@H]3C(=O)N[C@H](C(=O)N[C@H](C(=O)OCC(=O)Nc4ccc(CC(P(=O)(O)O)P(=O)(O)O)cc4)c4cc(O)cc(O)c4-c4cc3ccc4O)[C@H](O[C@H]3C[C@](C)(N)[C@@H](O)[C@H](C)O3)c3ccc(c(Cl)c3)Oc3cc2cc(c3O[C@@H]2O[C@H](CO)[C@@H](O)[C@H](O)[C@H]2O[C@H]2C[C@](C)(NCc3ccc(-c4ccc(Cl)cc4)cc3)[C@@H](O)[C@H](C)O2)Oc2ccc(cc2Cl)[C@H]1O.N.N.N [Compound 33] was tested. Which “antibacterial activity, fold weaker than the parent drug” value did it give?
A: 16 to 32 fold

Q: How did the “antibacterial activity, fold weaker than the parent drug” value turn out when CC(C)CC(C(=O)NC1C(=O)NC(CC(N)=O)C(=O)NC2C(=O)NC3C(=O)NC(C(=O)NC(C(=O)O)c4cc(O)cc(O)c4-c4cc3ccc4O)C(O)c3ccc(c(Cl)c3)Oc3cc2cc(c3OC2OC(CO)C(O)C(O)C2OC2CC(C)(N)C(O)C(C)O2)Oc2ccc(cc2Cl)C1O)N(C)C(=O)CCC(=O)NC(P(=O)(O)O)P(=O)(O)O (centres unmarked) [Compound 6] was run?
A: 16 to 32 fold

Q: With CN[C@H](CC(C)C)C(=O)N[C@H]1C(=O)N[C@@H](CC(N)=O)C(=O)N[C@H]2C(=O)N[C@H]3C(=O)N[C@H](C(=O)N[C@H](C(=O)OCC(=O)NC(P(=O)(O)O)P(=O)(O)O)c4cc(O)cc(O)c4-c4cc3ccc4O)[C@H](O[C@H]3C[C@](C)(N)[C@@H](O)[C@H](C)O3)c3ccc(c(Cl)c3)Oc3cc2cc(c3O[C@@H]2O[C@H](CO)[C@@H](O)[C@H](O)[C@H]2O[C@H]2C[C@](C)(NCc3ccc(-c4ccc(Cl)cc4)cc3)[C@@H](O)[C@H](C)O2)Oc2ccc(cc2Cl)[C@H]1O.O=C(O)C(F)(F)F.O=C(O)C(F)(F)F.O=C(O)C(F)(F)F [Compound 31] as the compound, how does the “antibacterial activity, fold weaker than the parent drug” value read?
A: 16 to 32 fold

Q: How did the “antibacterial activity, fold weaker than the parent drug” value turn out when CC(C)C[C@H](C(=O)N[C@H]1C(=O)N[C@@H](CC(N)=O)C(=O)N[C@H]2C(=O)N[C@H]3C(=O)N[C@H](C(=O)N[C@H](C(=O)O)c4cc(O)cc(O)c4-c4cc3ccc4O)[C@H](O[C@H]3C[C@](C)(N)[C@@H](O)[C@H](C)O3)c3ccc(c(Cl)c3)Oc3cc2cc(c3O[C@@H]2O[C@H](CO)[C@@H](O)[C@H](O)[C@H]2O[C@H]2C[C@](C)(NCc3ccc(-c4ccc(Cl)cc4)cc3)[C@@H](O)[C@H](C)O2)Oc2ccc(cc2Cl)[C@H]1O)N(C)C(=O)OCOC(=O)CCC(P(=O)(O)O)P(=O)(O)O.O=C(O)C(F)(F)F.O=C(O)C(F)(F)F [Compound 65] was run?
A: 16 to 32 fold

Q: For CC(C)C[C@H](C(=O)N[C@H]1C(=O)N[C@@H](CC(N)=O)C(=O)N[C@H]2C(=O)N[C@H]3C(=O)N[C@H](C(=O)N[C@H](C(=O)O)c4cc(O)cc(O)c4-c4cc3ccc4O)[C@H](O[C@H]3C[C@](C)(N)[C@@H](O)[C@H](C)O3)c3ccc(c(Cl)c3)Oc3cc2cc(c3O[C@@H]2O[C@H](CO)[C@@H](O)[C@H](O)[C@H]2O[C@H]2C[C@](C)(NCc3ccc(-c4ccc(Cl)cc4)cc3)[C@@H](O)[C@H](C)O2)Oc2ccc(cc2Cl)[C@H]1O)N(C)C(=O)CCCOC(=O)CC(P(=O)(O)O)P(=O)(O)O [Compound 50], which “antibacterial activity, fold weaker than the parent drug” value is on record?
A: 16 to 32 fold

Q: How did the “antibacterial activity, fold weaker than the parent drug” value turn out when CC(C)C[C@H](C(=O)N[C@H]1C(=O)N[C@@H](CC(N)=O)C(=O)N[C@H]2C(=O)N[C@H]3C(=O)N[C@H](C(=O)N[C@H](C(=O)O)c4cc(O)cc(O)c4-c4cc3ccc4O)[C@H](O[C@H]3C[C@](C)(N)[C@@H](O)[C@H](C)O3)c3ccc(c(Cl)c3)Oc3cc2cc(c3O[C@@H]2O[C@H](CO)[C@@H](O)[C@H](O)[C@H]2O[C@H]2C[C@](C)(NCc3ccc(-c4ccc(Cl)cc4)cc3)[C@@H](O)[C@H](C)O2)Oc2ccc(cc2Cl)[C@H]1O)N(C)C(=O)CCC(P(=O)(O)O)P(=O)(O)O [Compound 39] was run?
A: 16 to 32 fold

Q: How did the “antibacterial activity, fold weaker than the parent drug” value turn out when CC(C)C[C@H](C(=O)N[C@H]1C(=O)N[C@@H](CC(N)=O)C(=O)N[C@H]2C(=O)N[C@H]3C(=O)N[C@H](C(=O)N[C@H](C(=O)O)c4cc(O)cc(O)c4-c4cc3ccc4O)[C@H](O[C@H]3C[C@](C)(N)[C@@H](O)[C@H](C)O3)c3ccc(c(Cl)c3)Oc3cc2cc(c3O[C@@H]2O[C@H](CO)[C@@H](O)[C@H](O)[C@H]2O[C@H]2C[C@](C)(NCc3ccc(-c4ccc(Cl)cc4)cc3)[C@@H](O)[C@H](C)O2)Oc2ccc(cc2Cl)[C@H]1O)N(C)C(=O)OCOC(=O)CCCC(P(=O)(O)O)P(=O)(O)O [Compound 60] was run?
A: 16 to 32 fold

Q: For CC(C)C[C@H](C(=O)N[C@H]1C(=O)N[C@@H](CC(N)=O)C(=O)N[C@H]2C(=O)N[C@H]3C(=O)N[C@H](C(=O)N[C@H](C(=O)O)c4cc(O)cc(O)c4-c4cc3ccc4O)[C@H](O[C@H]3C[C@](C)(N)[C@@H](O)[C@H](C)O3)c3ccc(c(Cl)c3)Oc3cc2cc(c3O[C@@H]2O[C@H](CO)[C@@H](O)[C@H](O)[C@H]2O[C@H]2C[C@](C)(NCc3ccc(-c4ccc(Cl)cc4)cc3)[C@@H](O)[C@H](C)O2)Oc2ccc(cc2Cl)[C@H]1O)N(C)C(=O)CC(P(=O)(O)O)P(=O)(O)O.N.N.N [Compound 44], which “antibacterial activity, fold weaker than the parent drug” value is on record?
A: 16 to 32 fold
